Taken from: PubChem BioAssay AID1259314 (Drosophila RNAi Screening Center, 2017)

Screen: 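Modifiers of manganese chloride toxicity in fly cells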 (primary screen)
Cells: Drosophila S2R+ cells
Knock-down reagent: long dsRNA against Drosophila genes
Duration: 5 days (4 days knock-down, then 1 day metal exposure)
Conditions: manganese chloride added to 15 mM for 24 hours
Detection: 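Cellular ATP measured by luciferase light, scaled to the plate mean, averaged across replicates and z-scored over plates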
Reading the numbers: mean ATP z-score: higher = more ATP than the plate average, more viable cells under manganese
Rule for the call: 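Called active when the mean ATP z-score is above 1.5 or below -1.5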
Calls: active = strong ATP change, up or down; inactive = no strong ATP change
The whole screen tested about 3,100 reagents; below is a part drawn at random. 289 of them (9.3%) count as active. 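Active includes both higher and lower ATP than plate average; check the z-score sign for direction.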 Not given: the amount of reagent.

The opening 8 records, ahead of the listing:
gene | DRSC id | mean ATP z-score | Outcome
CG32988 | DRSC02692 | -0.227 | inactive
CG8916 | DRSC20120 | -0.0548 | inactive
CG8916 | DRSC39685 | 0.442 | inactive
Surf4 (Surfeit 4) | DRSC16875 | 0.516 | inactive
Surf4 (Surfeit 4) | DRSC39877 | -0.339 | inactive
CG3285 | DRSC00589 | -0.655 | inactive
Oatp58Db (Organic anion transporting polypeptide 58Db) | DRSC04364 | 0.0188 | inactive
vir (virilizer) | DRSC04377 | -1.38 | inactive

The list itself, from the start:
gene | DRSC id | mean ATP z-score | Outcome
CG32988 | DRSC02692 | -0.227 | inactive
CG8916 | DRSC20120 | -0.0548 | inactive
CG8916 | DRSC39685 | 0.442 | inactive
Surf4 (Surfeit 4) | DRSC16875 | 0.516 | inactive
Surf4 (Surfeit 4) | DRSC39877 | -0.339 | inactive
CG3285 | DRSC00589 | -0.655 | inactive
Oatp58Db (Organic anion transporting polypeptide 58Db) | DRSC04364 | 0.0188 | inactive
vir (virilizer) | DRSC04377 | -1.38 | inactive
vir (virilizer) | DRSC26525 | -1 | inactive
Nrg (Neuroglian) | DRSC17573 | 3.48 | active
Nrg (Neuroglian) | DRSC18688 | -0.556 | inactive
Nrg (Neuroglian) | DRSC27797 | -0.989 | inactive
otk2 (off-track2) | DRSC07303 | -0.536 | inactive
JhI-21 (Juvenile hormone Inducible-21) | DRSC02161 | 0.332 | inactive
JhI-21 (Juvenile hormone Inducible-21) | DRSC29181 | 0.567 | inactive
Cpes (Ceramide phosphoethanolamine synthase) | DRSC27503 | 0.432 | inactive
tor (torso) | DRSC07707 | -0.3 | inactive
tor (torso) | DRSC36623 | 0.181 | inactive
tor (torso) | DRSC36624 | 0.308 | inactive
Tsp39D (Tetraspanin 39D) | DRSC03099 | 0.248 | inactive
Ntl (Neurotransmitter transporter-like) | DRSC03003 | 0.334 | inactive
Ntl (Neurotransmitter transporter-like) | DRSC28007 | 1.3 | inactive
chk (chaski) | DRSC04994 | -0.00191 | inactive
Tim23 (Translocase of inner mitochondrial membrane 23) | DRSC21240 | -2.68 | active
CG4615 | DRSC17491 | 1.26 | inactive
CG4615 | DRSC18376 | -1.39 | inactive
CG4615 | DRSC26722 | 1.85 | active
drl (derailed) | DRSC03523 | 0.73 | inactive
drl (derailed) | DRSC28564 | 0.85 | inactive
drl (derailed) | DRSC37026 | -0.259 | inactive
ed (echinoid) | DRSC00350 | -1.22 | inactive
ed (echinoid) | DRSC00439 | 1 | inactive
ed (echinoid) | DRSC00478 | 0.343 | inactive
CG8630 | DRSC16441 | -0.143 | inactive
CG8630 | DRSC24081 | -0.836 | inactive
Ir47a (Ionotropic receptor 47a) | DRSC06215 | -1.03 | inactive
CG1998 | DRSC19829 | -0.171 | inactive
CG1998 | DRSC39895 | 0.607 | inactive
fra (frazzled) | DRSC07621 | -0.303 | inactive
SPR (Sex peptide receptor) | DRSC17886 | 0.0193 | inactive
SPR (Sex peptide receptor) | DRSC21557 | -0.365 | inactive
CG9447 | DRSC05008 | -0.158 | inactive
PIG-Wb (Phosphatidylinositol glycan anchor biosynthesis class W b) | DRSC08526 | -0.218 | inactive
EloA (Elongin A) | DRSC16109 | 0.447 | inactive
EloA (Elongin A) | DRSC23920 | -1.01 | inactive
rdog (red dog mine) | DRSC14431 | -0.256 | inactive
rdog (red dog mine) | DRSC26545 | -0.757 | inactive
CG3216 | DRSC04347 | -0.614 | inactive
CG3216 | DRSC24945 | -0.378 | inactive
CG42260 | DRSC04385 | 0.111 | inactive
Ir75b (Ionotropic receptor 75b) | DRSC10189 | -0.573 | inactive
Gr77a (Gustatory receptor 77a) | DRSC11446 | -0.515 | inactive
Gr77a (Gustatory receptor 77a) | DRSC26808 | 1.15 | inactive
BI-1 (Bax Inhibitor-1) | DRSC10782 | -0.153 | inactive
BI-1 (Bax Inhibitor-1) | DRSC39448 | 0.388 | inactive
CG10081 | DRSC05962 | -0.914 | inactive
CG10081 | DRSC24787 | 1.36 | inactive
CG10465 | DRSC04848 | 0.342 | inactive
CG10465 | DRSC39896 | 0.553 | inactive
Or83c (Odorant receptor 83c) | DRSC12359 | 0.397 | inactive
Or83c (Odorant receptor 83c) | DRSC39535 | -0.0761 | inactive
nAChRbeta3 (nicotinic Acetylcholine Receptor beta3) | DRSC00325 | -0.76 | inactive
fzo (fuzzy onions) | DRSC16954 | -0.149 | inactive
fzo (fuzzy onions) | DRSC39864 | 0.389 | inactive
RFeSP (Rieske iron-sulfur protein) | DRSC00702 | -2.36 | active
RFeSP (Rieske iron-sulfur protein) | DRSC27607 | -3.13 | active
alpha-Catr (alpha-catenin related) | DRSC28046 | 0.755 | inactive
glec (gliolectin) | DRSC16958 | -0.847 | inactive
glec (gliolectin) | DRSC25314 | -1.4 | inactive
Ae2 (Anion exchanger 2) | DRSC08997 | 1.09 | inactive
Ae2 (Anion exchanger 2) | DRSC10969 | -0.123 | inactive
Nup214 (Nucleoporin 214kD) | DRSC04421 | -1.03 | inactive
Nup214 (Nucleoporin 214kD) | DRSC39709 | 0.459 | inactive
Arv1 (ACAT-related protein required for viability 1) | DRSC11491 | 0.393 | inactive
Lap1 | DRSC07454 | 0.473 | inactive
Lap1 | DRSC39730 | -0.0477 | inactive
